Test results taken from patent EP4591861A1 (IBIOME Biotechnology Co., Ltd., priority 2022, dated 2024).

Settings: intraperitoneal injection, 10 mg/kg; 0h to 12h after administration; frozen brain sections, IMS imaging mass spectrometry

**Q.** For `CC(CCC(=O)[O-])[N+](C)(C)C` (stereo not shown) [4-TMAP, 4-(trimethylammonio) pentanoate], which “changes in the content of 4-TMAP in brain tissue” value is on record?
**A.** The value was “can directly enter the brain tissue through the blood-brain barrier”.
